# According to PubChem BioAssay AID540303 (National Center for Advancing Translational Sciences (NCATS), 2011):
# About 1,000 (0.3%) of roughly 330,000 compounds were called active. The shares of active, inactive and inconclusive entries below differ from those in the screen. The call rests on the fitted dose curve; in most records, active means well fitted inhibition curve with a large enough effect; inconclusive means small, poorly fitted or top-dose-only effect; inactive means no such curve, though single readings can be large or run the other way; tested in mouse RAW 264.7 cells. Potencies beside an inconclusive call are fits to weak or partial responses and may not hold up.
# Assay: qHTS for Inhibitors of Cell Surface uPA Generation; further: nearly all actives have a fitted effect of over 55% in size
# Details: cell surface uPA generation assay; series mostly up to 38.3 µM; activity change, negative = inhibition: at the top concentration
# Summary of the method: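 Using RAW 264.7 macrophages, the screen measures whether compounds keep cellular ATP up by preventing uPA-driven LF translocation. Treatment lasted 24 h at 37 C, with a final top concentration of 38.3 uM, and luminescence was the readout.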
# On the % scale 0 is the no-effect control and ±100 the full control effect; potency means the concentration at half of the fitted maximal effect.
SMILES,Potency,"activity change, negative = inhibition"
O=C(Nc1cnn(C23CC4CC(CC(C4)C2)C3)c1)c1cnn2cccnc12,"inconclusive: 4.47 µM [inhibitor, partial curve, poor fit]",–
CC(C)C(=O)NC(=S)Nc1ccccn1,–,inactive: -1.7%
O=C(O)/C=C/C(=O)Nc1ccccc1SC(F)(F)F,"inconclusive: 1.78 µM [inhibitor, partial curve, poor fit]",–
C#CCCOC(=O)N1C2=NC(C(=O)OC)=C(C(=O)OC)[C@@H]3N(CC=C)c4ccccc4[C@]23C[C@H]1C(=O)OC,"inconclusive: 0.891 µM [inhibitor, full curve]",–
O=C(CSc1nnc(NC(=O)c2ccco2)s1)Nc1cccc(F)c1,"inconclusive: 11.2 µM [inhibitor, single point]",–
COc1cccc(O)c1CN1CCC(Oc2ccc(C(=O)NCc3ccccn3)cc2)CC1,"inconclusive: 5.01 µM [inhibitor, partial curve, poor fit]",–
Cc1cccc2cc(-c3ccccc3)c(-c3ccccc3)c[n+]12,"inconclusive: 31.6 µM [inhibitor, partial curve, poor fit]",–
CCOc1cc(C2Nc3ccccc3NC3=C2C(=O)CC(C)(C)C3)ccc1O (stereo unspecified),"inconclusive: 12.6 µM [inhibitor, single point]",–
O=C(c1c[nH]c2ccccc12)C(Cl)c1ccccc1 (stereo unspecified),active: 6.31 µM,–
COc1ccc(NC(=O)CNc2ccc(C#N)cc2)cc1,–,inactive: 3.62%
CN(C)S(=O)(=O)N1CCN(CC(O)COc2ccc(-c3ccccc3)cc2)CC1 (stereo unspecified),–,inactive: -4.36%
CCOc1ccc(C(=O)CCC(=O)NN2C(=O)NC3(CCCCC3)C2=O)cc1,"inconclusive: 1 µM [inhibitor, partial curve, poor fit]",–
COc1cc(N/C(N)=N/c2nc(C)cc(C)n2)cc(OC)c1,"inconclusive: 28.2 µM [inhibitor, single point]",–
Cc1ccc(SC2CCN(C(=O)C3CCC(=O)N(C4CC4)C3)CC2)cc1 (stereo unspecified),"inconclusive: 2.82 µM [inhibitor, single point]",–
CCCCC/C=N/NC(=O)c1[nH]c2ccc([N+](=O)[O-])cc2c1C,–,inactive: -0.808%
COc1cccc(NC(=O)CSc2nc3n[nH]c(C)c3c(=N)n2-c2cccc(OC)c2)c1,–,inactive: -7.31%
COc1ccc(N2CCN(C(=O)c3oc4ccccc4c3NC(=O)Cc3cccc(OC)c3)CC2)cc1,–,inactive: -13.6%
CN(C(=O)c1coc(=O)c2ccccc12)c1ccc(F)cc1,–,inactive: -1.46%
O=C(COC(=O)c1ccc(F)cc1F)NC(=O)Nc1ccc2c(c1)OCCO2,"inconclusive: 0.355 µM [inhibitor, full curve, poor fit]",–
CC(=O)Nc1ccc(N/C=C/C(=O)c2ccc(Br)cc2)cc1,"inconclusive: 0.316 µM [inhibitor, full curve, poor fit]",–
COCCCn1c(=S)[nH]c2sc3c(c2c1=O)CCCS3,–,inactive: -3.73%
Cc1ccc2c(Cl)c(C(=O)NC3CC3)sc2c1,"inconclusive: 7.94 µM [inhibitor, partial curve, poor fit]",–

SMILES,Potency,"activity change, negative = inhibition"
O=C(NCCCCCCNC(=O)c1cncc(O)c1)c1cncc(O)c1,–,inactive: 0.649%
CN(c1ccc(F)cc1)S(=O)(=O)c1ccc(Cl)c(C(=O)Nc2ccc3c(c2)CCC3)c1,–,inactive: 6.82%
COC(=O)Cn1ncc2c(C)n(Cc3ccccc3)c(C)c2c1=O,"inconclusive: 11.2 µM [inhibitor, single point]",–
CC(C)NC(=O)CN(C(=O)CCC(=O)Nc1nccs1)c1ccc(C(C)C)cc1,"inconclusive: 2.24 µM [inhibitor, single point]",–
COc1ccc2c(Cl)c(C(=O)NN)sc2c1,"inconclusive: 10 µM [inhibitor, partial curve]",–
Nc1cccc2nc3ccccc3cc12,"inconclusive: 1 µM [inhibitor, single point]",–
O=C1c2ccccc2C(=O)N1CCCCCCc1ccccc1,–,inactive: 5.43%
CC(=NNC(=O)c1cccc(S(=O)(=O)N2CCOCC2)c1)c1ccccc1,"inconclusive: 0.355 µM [inhibitor, full curve, poor fit]",–
Cc1cc(OCC(=O)Nc2ccc(N3CCN(C)CC3)cc2)ccc1Cl,"inconclusive: 0.282 µM [inhibitor, full curve, poor fit]",–
CC(=O)N1CCc2cc(N=NC3=C(O)CC(C)(C)CC3=O)ccc21,"inconclusive: 31.6 µM [inhibitor, partial curve, poor fit]",–
COc1ccccc1/C=C/C(=O)NC(=S)Nc1ccc(S(=O)(=O)N(C)c2ccccc2)cc1,–,inactive: 4.13%
O=C(Oc1cccc2cccnc12)c1ccc(N2C(=O)C3C4CCC(C4)C3C2=O)cc1 (stereo unspecified),–,inactive: -0.612%
O=C(CCCCCCCCCCC(=O)NCc1cccnc1)NCc1cccnc1,–,inactive: 0.858%
CCCOc1ccc(N2C(=O)CC(N(Cc3ccco3)C(C)=O)C2=O)cc1 (stereo unspecified),"inconclusive: 2.82 µM [inhibitor, partial curve, poor fit]",–
Cc1cc2nc(-c3ccc(SCC(=O)Nc4ccc5c(c4)OCCO5)nc3)[nH]c2cc1C,"inconclusive: 5.62 µM [inhibitor, partial curve, poor fit]",–
CCOc1ccc(NC(=O)CSc2nnc(-c3ccccc3Cl)n2Cc2ccco2)cc1,–,inactive: -0.28%
COc1cc(/C=C/C(=O)c2ccc([N+](=O)[O-])o2)ccc1O,"inconclusive: 2.82 µM [inhibitor, partial curve, poor fit]",–
COc1ccc(S(N)(=O)=O)cc1C(=O)N(C)CC(=O)Nc1ccc(N2CCOCC2)cc1,"inconclusive: 10 µM [inhibitor, partial curve, poor fit]",–
COc1ccc(/C=C2\SC(=O)N(CC(=O)Nc3ccc(F)cc3)C2=O)cc1O,"inconclusive: 12.6 µM [inhibitor, single point]",–
O=C(COc1ccccc1)Nc1cc(Cl)ccc1Cl,"inconclusive: 28.2 µM [inhibitor, single point]",–
CCN(CC)CCNC(=O)CSc1c2c(nc3cc(Cl)ccc13)CCCC2,"inconclusive: 11.2 µM [inhibitor, single point]",–
CC(=O)OC(C)(C)/C=C/C(=O)[C@](C)(O)C1[C@H](O)C[C@@]2(C)C3CC=C4C(C=C(O[C@@H]5O[C@H](CO)[C@@H](O)[C@H](O)[C@H]5O)C(=O)C4(C)C)[C@]3(C)C(=O)C[C@]12C (stereo partly specified),"inconclusive: 11.2 µM [inhibitor, partial curve, poor fit]",–

# Copied from above, 4 compounds:
SMILES,Potency,"activity change, negative = inhibition"
Cc1cccc2cc(-c3ccccc3)c(-c3ccccc3)c[n+]12,"inconclusive: 31.6 µM [inhibitor, partial curve, poor fit]",–
CCOc1cc(C2Nc3ccccc3NC3=C2C(=O)CC(C)(C)C3)ccc1O (stereo unspecified),"inconclusive: 12.6 µM [inhibitor, single point]",–
O=C(c1c[nH]c2ccccc12)C(Cl)c1ccccc1 (stereo unspecified),active: 6.31 µM,–
COc1ccc(NC(=O)CNc2ccc(C#N)cc2)cc1,–,inactive: 3.62%

# Following part:

SMILES,Potency,"activity change, negative = inhibition"
CC(NC(=O)CSc1ccccc1)c1ccccc1 (stereo unspecified),"inconclusive: 1 µM [inhibitor, partial curve, poor fit]",–
COc1ccc(-c2cc(C(=O)NCc3ccco3)c3ccccc3n2)cc1,"inconclusive: 11.2 µM [inhibitor, single point]",–
CC1Cc2cc(S(=O)(=O)NCCC(=O)NCc3ccc(F)cc3)ccc2N1C(=O)C1CC1 (stereo unspecified),"inconclusive: 28.2 µM [inhibitor, single point]",–
CCCC(=O)Nc1ccc2c(c1)nc(CN1CCN(C(=O)OCC)CC1)n2CC,active: 3.55 µM,–
Cc1ccnc(NC(=O)c2ccc(Br)s2)c1,"inconclusive: 12.6 µM [inhibitor, partial curve, poor fit]",–
Cc1csc(C(C#N)C(=O)c2cc3ccccc3o2)n1 (stereo unspecified),"inconclusive: 2.82 µM [inhibitor, partial curve]",–
COc1ccc(CNC(=O)C[C@H]2C[C@H](C(=O)N3CCCCC3)[C@@]3(C)c4[nH]c5ccc(Cl)cc5c4CCN3C2=O)cc1OC,"inconclusive: 20 µM [inhibitor, single point]",–
C=CCNC(=O)c1ccc(CN(c2ccc(OCC)cc2)S(=O)(=O)c2ccc(C)cc2)cc1,"inconclusive: 11.2 µM [inhibitor, single point]",–
O=C(CCCc1c[nH]c2ccccc12)NCCc1c[nH]c2ccccc12,–,inactive: 3.01%
Cn1c2ccccc2c(=O)c2cc(C#Cc3cccc(N)c3)ccc21,"inconclusive: 5.01 µM [inhibitor, partial curve, poor fit]",–
OC(C#Cc1ccccn1)c1cccs1 (stereo unspecified),–,inactive: -7.36%
CC1=CC(C)(C)N(C(=O)CCl)c2ccccc21,"inconclusive: 10 µM [inhibitor, partial curve, poor fit]",–
CN(c1ccc(F)cc1)S(=O)(=O)c1ccc(Cl)c(C(=O)NCC2CCCO2)c1 (stereo unspecified),"inconclusive: 3.55 µM [inhibitor, partial curve, poor fit]",–
COc1ccc(NC(=O)C2Cc3cccc(OC)c3O/C2=N\O)cc1 (stereo unspecified),"inconclusive: 31.6 µM [inhibitor, single point]",–
Fc1ccc(-n2nnc(-c3nccs3)n2)cc1,"inconclusive: 8.91 µM [inhibitor, partial curve]",–
Cc1ccc(Cl)cc1N1CCN(C(=O)COc2ccc(S(=O)(=O)NC(C)C)cc2)CC1,"inconclusive: 10 µM [inhibitor, single point]",–
COc1ccc(CNC(=O)Cc2ccc(NC(=O)C3=C(C)OCCS3)cc2)cc1,"inconclusive: 1.26 µM [inhibitor, full curve, poor fit]",–
Cc1ccc(C(=O)N/N=C/C2=Cc3ccccc3OC2C)cc1 (stereo unspecified),–,inactive: -19%
Cc1cccc(NC(=S)NC2CC3CCCC(C2)N3Cc2ccco2)c1 (stereo unspecified),"inconclusive: 8.91 µM [inhibitor, partial curve, poor fit]",–
CC(=O)N1CN(S(=O)(=O)c2ccc(C)cc2)CC1C (stereo unspecified),–,inactive: 6.28%
Cc1ccc(CNC(=O)c2cc3c(C)nc4ccccc4c3o2)cc1,"inconclusive: 7.08 µM [inhibitor, single point]",–
CCC(C)n1nccc1NC(=O)C(C)OC(=O)c1cc2ccccc2[nH]1 (stereo unspecified),–,inactive: 2.86%
